Paper PMC4031558
No constants are given. Whether binding was seen depends on the method and setting. Binding seen in cells or lysates may run through a third protein. Some entries that bind do so weakly or less than the wild type.

By UniProt entry, the sequences of proteins in these tests, tags left out.
UniProt P13569: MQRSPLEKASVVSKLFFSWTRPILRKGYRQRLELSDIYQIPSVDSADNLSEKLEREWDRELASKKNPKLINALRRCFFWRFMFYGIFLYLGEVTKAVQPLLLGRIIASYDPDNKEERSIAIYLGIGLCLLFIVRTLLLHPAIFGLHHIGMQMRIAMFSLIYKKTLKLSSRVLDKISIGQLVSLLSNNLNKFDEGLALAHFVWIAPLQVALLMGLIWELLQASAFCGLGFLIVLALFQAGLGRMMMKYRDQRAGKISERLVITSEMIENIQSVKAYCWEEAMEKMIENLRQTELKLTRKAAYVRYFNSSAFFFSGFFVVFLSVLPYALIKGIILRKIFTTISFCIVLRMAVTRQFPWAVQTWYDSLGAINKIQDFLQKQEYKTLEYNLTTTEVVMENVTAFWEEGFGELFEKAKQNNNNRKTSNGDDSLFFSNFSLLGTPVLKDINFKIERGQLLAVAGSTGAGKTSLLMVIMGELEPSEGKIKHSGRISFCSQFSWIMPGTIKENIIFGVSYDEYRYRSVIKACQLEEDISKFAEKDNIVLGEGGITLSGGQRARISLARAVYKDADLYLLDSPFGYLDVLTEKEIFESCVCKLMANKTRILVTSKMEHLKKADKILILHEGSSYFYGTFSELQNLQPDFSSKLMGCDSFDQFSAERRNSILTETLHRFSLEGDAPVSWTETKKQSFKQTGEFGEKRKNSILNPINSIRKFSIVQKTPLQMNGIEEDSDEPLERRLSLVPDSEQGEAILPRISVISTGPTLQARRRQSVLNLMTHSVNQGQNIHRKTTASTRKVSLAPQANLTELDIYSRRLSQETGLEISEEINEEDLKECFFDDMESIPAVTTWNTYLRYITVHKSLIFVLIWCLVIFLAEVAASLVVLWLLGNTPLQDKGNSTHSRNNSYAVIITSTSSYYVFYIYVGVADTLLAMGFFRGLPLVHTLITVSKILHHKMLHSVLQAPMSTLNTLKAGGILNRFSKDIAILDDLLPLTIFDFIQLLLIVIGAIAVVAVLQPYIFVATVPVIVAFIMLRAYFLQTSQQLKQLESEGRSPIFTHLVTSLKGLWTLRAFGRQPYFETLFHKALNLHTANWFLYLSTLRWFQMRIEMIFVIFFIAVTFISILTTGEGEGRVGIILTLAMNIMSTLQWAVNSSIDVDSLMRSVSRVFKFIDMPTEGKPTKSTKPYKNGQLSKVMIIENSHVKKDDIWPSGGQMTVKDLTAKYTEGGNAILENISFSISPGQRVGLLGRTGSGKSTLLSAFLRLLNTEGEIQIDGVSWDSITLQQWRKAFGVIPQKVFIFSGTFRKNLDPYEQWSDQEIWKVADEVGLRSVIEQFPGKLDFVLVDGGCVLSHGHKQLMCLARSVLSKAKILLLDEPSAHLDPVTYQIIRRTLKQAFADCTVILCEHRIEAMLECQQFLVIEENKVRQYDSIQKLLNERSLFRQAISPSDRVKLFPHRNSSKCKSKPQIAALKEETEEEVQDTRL
UniProt Q8IWU2: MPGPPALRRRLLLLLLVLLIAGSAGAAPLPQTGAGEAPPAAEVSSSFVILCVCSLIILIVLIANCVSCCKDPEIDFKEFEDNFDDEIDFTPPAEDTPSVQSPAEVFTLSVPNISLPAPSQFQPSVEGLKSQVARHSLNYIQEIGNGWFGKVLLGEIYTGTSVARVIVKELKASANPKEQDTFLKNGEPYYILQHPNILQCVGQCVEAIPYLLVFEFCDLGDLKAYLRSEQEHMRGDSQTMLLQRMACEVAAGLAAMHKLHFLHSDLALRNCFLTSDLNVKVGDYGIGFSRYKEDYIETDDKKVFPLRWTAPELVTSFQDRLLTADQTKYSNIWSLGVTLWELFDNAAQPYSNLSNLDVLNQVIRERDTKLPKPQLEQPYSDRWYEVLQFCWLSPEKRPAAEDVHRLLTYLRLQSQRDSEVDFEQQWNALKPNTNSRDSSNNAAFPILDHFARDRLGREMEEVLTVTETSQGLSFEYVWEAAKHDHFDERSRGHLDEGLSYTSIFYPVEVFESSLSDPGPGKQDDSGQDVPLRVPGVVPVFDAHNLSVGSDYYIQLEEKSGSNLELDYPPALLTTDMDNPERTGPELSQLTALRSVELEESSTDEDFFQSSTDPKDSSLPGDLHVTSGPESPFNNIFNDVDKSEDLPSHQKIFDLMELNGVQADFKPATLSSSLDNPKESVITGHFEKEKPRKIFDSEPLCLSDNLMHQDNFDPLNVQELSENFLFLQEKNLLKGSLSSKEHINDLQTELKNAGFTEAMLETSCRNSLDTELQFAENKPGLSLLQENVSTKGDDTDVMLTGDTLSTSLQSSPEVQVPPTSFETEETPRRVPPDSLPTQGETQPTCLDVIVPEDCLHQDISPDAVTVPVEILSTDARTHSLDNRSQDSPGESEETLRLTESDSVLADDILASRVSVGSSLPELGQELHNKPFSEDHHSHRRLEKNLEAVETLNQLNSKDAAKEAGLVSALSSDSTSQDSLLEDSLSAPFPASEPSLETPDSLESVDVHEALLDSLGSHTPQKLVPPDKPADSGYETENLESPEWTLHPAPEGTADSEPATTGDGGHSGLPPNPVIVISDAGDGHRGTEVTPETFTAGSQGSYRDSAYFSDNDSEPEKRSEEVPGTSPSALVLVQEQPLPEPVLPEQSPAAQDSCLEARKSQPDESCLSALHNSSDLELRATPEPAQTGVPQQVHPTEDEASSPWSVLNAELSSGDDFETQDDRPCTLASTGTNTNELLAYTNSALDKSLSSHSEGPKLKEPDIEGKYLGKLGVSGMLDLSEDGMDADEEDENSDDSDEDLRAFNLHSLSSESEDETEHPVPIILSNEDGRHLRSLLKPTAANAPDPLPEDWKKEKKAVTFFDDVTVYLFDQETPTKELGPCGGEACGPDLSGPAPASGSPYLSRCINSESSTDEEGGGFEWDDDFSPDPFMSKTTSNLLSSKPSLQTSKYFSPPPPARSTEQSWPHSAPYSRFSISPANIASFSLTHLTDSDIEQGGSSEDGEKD

Legend:
[1] = target: cystic fibrosis transmembrane conductance regulator (CFTR) (human (endogenous in Calu-3)) (UniProt P13569); test: co-IP; endogenous proteins from lysates of polarized Calu-3 cells; IP buffer 150 mM NaCl, 50 mM Tris pH 7.4, 1% IGEPAL, 5 mM MgCl2, 5 mM EDTA, 1 mM EGTA; CFTR precipitated with mouse M3A7, LMTK2 with rabbit anti-LMTK2 kinase domain antibody, on protein G- or protein A-Sepharose; non-immune mouse or rabbit IgG as controls; Western blot
[2] = target: Lemur tyrosine kinase 2 (LMTK2) (human (endogenous in Calu-3)) (UniProt Q8IWU2); test: as above

| Substance | binding [1] | binding [2] |
| --- | --- | --- |
| Lemur tyrosine kinase 2 (LMTK2) (from UniProt Q8IWU2 1-1503) (enzyme) | binds |  |
| cystic fibrosis transmembrane conductance regulator (CFTR) (from UniProt P13569 1-1480) |  | binds |
